PubChem BioAssay AID1259405 | NCATS | 2018

- Test: 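Knock-downs that lift recombinant protein yield in hamster ovary cells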 (primary screen)
- System: Chinese hamster CHO-K1 ovary cells with stable secreted eGFP expression
- Reagents: single siRNA against mouse genes, 0.8 pmol siRNA per well (2 µl of 400 nM stock)
- Duration: 3 days
- Measurement: 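Per-well intracellular GFP measured by laser scanning cytometry, plus viability from ATP luminescence, each relative to plate median of non-targeting control wells, in %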
- Direction: GFP, % of control: higher = more GFP per well, higher productivity; viability (ATP), % of control: higher = more viable cells (more ATP)
- Rule for the call: 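a knock-down is called active if GFP reaches 120% or more of non-targeting control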
Shown is a random part of about 50,000 deposited reagents. About 4,000 of all reagents (8%) count as active. 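Mouse siRNA library applied to hamster cells; one well for each siRNA.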 Reagents against one gene are numbered here.

Bet1 #1 | GFP, % of control = 91.8; viability (ATP), % of control = 92.4; outcome = inactive
Bet1 #2 | GFP, % of control = 84.1; viability (ATP), % of control = 77.7; outcome = inactive
Fxyd6 #1 | GFP, % of control = 117; viability (ATP), % of control = 107; outcome = inactive
Fxyd6 #2 | GFP, % of control = 59.9; viability (ATP), % of control = 66.6; outcome = inactive
Fxyd6 #3 | GFP, % of control = 42.2; viability (ATP), % of control = 64.3; outcome = inactive
Cs #1 | GFP, % of control = 59.5; viability (ATP), % of control = 67.8; outcome = inactive
Cs #2 | GFP, % of control = 54.6; viability (ATP), % of control = 74.2; outcome = inactive
Cs #3 | GFP, % of control = 104; viability (ATP), % of control = 81.7; outcome = inactive
Msmb #1 | GFP, % of control = 63.3; viability (ATP), % of control = 60; outcome = inactive
Msmb #2 | GFP, % of control = 120; viability (ATP), % of control = 53.6; outcome = inactive
Msmb #3 | GFP, % of control = 54.9; viability (ATP), % of control = 71.9; outcome = inactive
Dhx33 #1 | GFP, % of control = 89.9; viability (ATP), % of control = 66.2; outcome = inactive
Dhx33 #2 | GFP, % of control = 85.6; viability (ATP), % of control = 92.8; outcome = inactive
Dhx33 #3 | GFP, % of control = 125; viability (ATP), % of control = 112; outcome = active
Gbx1 #1 | GFP, % of control = 135; viability (ATP), % of control = 50.5; outcome = active
Gbx1 #2 | GFP, % of control = 71.4; viability (ATP), % of control = 68.7; outcome = inactive
Gbx1 #3 | GFP, % of control = 73; viability (ATP), % of control = 66.6; outcome = inactive
Tns1 #1 | GFP, % of control = 159; viability (ATP), % of control = 130; outcome = active
Tns1 #2 | GFP, % of control = 59.1; viability (ATP), % of control = 88.2; outcome = inactive
Tns1 #3 | GFP, % of control = 97.2; viability (ATP), % of control = 86.1; outcome = inactive

Copied from the list.
Tns1 #1, outcome = active
Result for Cs #2 under “outcome”: inactive
Tns1 #2, outcome → inactive

Additional records:
Marveld1 #1 | GFP, % of control = 87.2; viability (ATP), % of control = 61; outcome = inactive
Marveld1 #2 | GFP, % of control = 242; viability (ATP), % of control = 44.6; outcome = active
Marveld1 #3 | GFP, % of control = 65.6; viability (ATP), % of control = 43.1; outcome = inactive
Tnfrsf8 #1 | GFP, % of control = 101; viability (ATP), % of control = 80.1; outcome = inactive
Tnfrsf8 #2 | GFP, % of control = 68.7; viability (ATP), % of control = 65.7; outcome = inactive
Tnfrsf8 #3 | GFP, % of control = 66.3; viability (ATP), % of control = 60.1; outcome = inactive
Pgap6 #1 | GFP, % of control = 54.6; viability (ATP), % of control = 51; outcome = inactive
Pgap6 #2 | GFP, % of control = 93.8; viability (ATP), % of control = 105; outcome = inactive
Pgap6 #3 | GFP, % of control = 156; viability (ATP), % of control = 120; outcome = active
Pgap6 #4 | GFP, % of control = 127; viability (ATP), % of control = 91; outcome = active
Pgap6 #5 | GFP, % of control = 124; viability (ATP), % of control = 85.9; outcome = active
Pgap6 #6 | GFP, % of control = 80.2; viability (ATP), % of control = 110; outcome = inactive
